At least one peptide structure holds a part that was inferred or is arguable (an end, a ring closure or a residue). Positions of bridges follow the written chain, without caps; N, C: chain ends. Non-standard residues stand in square brackets, D forms with d. Residues, ends and D or L forms follow the SMILES beside them. Asu = N[C@@H](CCCCCC(=O)O)C(=O)O; dPhg = N[C@@H](C(=O)O)c1ccccc1; Pen = CC(C)(S)[C@H](N)C(=O)O
Columns and labels:
[1] = target: somatostatin receptors; assay: Inhibition of 125I-CGP 23,996 binding to rat brain homogenates
[2] = target: T1, δ-opiate receptors (Rattus norvegicus, UniProt P33533); assay: [3H]DADLE receptor binding to rat brain homogenates
T1 construct: Adult Sprague-Dawly rats (150-200g) were killed by decapitation; The brain was rapidly removed and homogenized; from tissue; host or cells: rat brain membranes (Sprague-Dawley)
Procedure: (§1) Adult Sprague-Dawly rats (150-200g) were killed by decapitation. The brain was rapidly removed and homogenized (10% wt/vol in 0.32 M sucrose in a glass homogenizer with a motor driven teflon pestle. The homogenate was then centrifuged at 43,000×g for 10 min and the resulting pellet was resuspended in 50 mM Trisma buffer (pH 7.4 at 25° C.) containing 5 mM MgCl2, 2 mg/ml BSA and 20 mg/ml of bacitracin, using a Polytron homogenizer (15 sec, setting 5). The centrifugation and resuspension step was repeated once.
(§2) For all the inhibition studies, rat brain plasma membranes (100 μl ) were incubated at 25° C. for 60 min in a total of 1.0 ml of 50 mM Trisma buffer containing 220,000 dpm ^125 I-CGP 23,996. See Czernik, A. J. and Petrack, G., J. Biol. Chem. 258,5525-5530 (1983) which is herein specifically incorporated by reference. 1 nM [^3 H-]naloxone (42.3 Ci/mmol, New England Nuclear) or 1 nM [^3 H]DADLE ([D-Ala^2, D-Ala^5 ]enkephalin), [^3 H-3'5'-Tyr]DADLE, 43 Ci/mmol, New England Nuclear, and at least nine concentrations of our synthetic analogues. All incubations were done in duplicate and each compound was tested at least five times. The concentration of test compounds was determined by quantitative amino acid analysis or from published molar extinction coefficients. […] The data were analyzed using nonlinear least squares regression analysis.

By UniProt entry, the sequences of proteins in these tests, tags left out. Where a name states a change or a piece, a line headed by the entry shows the natural chain unless it says otherwise.
UniProt P33533, whole entry: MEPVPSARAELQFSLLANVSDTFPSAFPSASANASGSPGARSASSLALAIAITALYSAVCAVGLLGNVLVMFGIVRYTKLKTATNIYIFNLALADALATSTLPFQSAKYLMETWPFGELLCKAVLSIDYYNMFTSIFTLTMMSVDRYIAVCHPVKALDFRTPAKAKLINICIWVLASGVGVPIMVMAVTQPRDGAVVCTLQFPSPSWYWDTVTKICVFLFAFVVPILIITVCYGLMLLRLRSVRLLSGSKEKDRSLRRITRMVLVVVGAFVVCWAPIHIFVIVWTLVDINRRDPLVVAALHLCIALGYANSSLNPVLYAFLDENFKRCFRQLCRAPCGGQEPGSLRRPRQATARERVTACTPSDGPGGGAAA
UniProt P33535, whole entry: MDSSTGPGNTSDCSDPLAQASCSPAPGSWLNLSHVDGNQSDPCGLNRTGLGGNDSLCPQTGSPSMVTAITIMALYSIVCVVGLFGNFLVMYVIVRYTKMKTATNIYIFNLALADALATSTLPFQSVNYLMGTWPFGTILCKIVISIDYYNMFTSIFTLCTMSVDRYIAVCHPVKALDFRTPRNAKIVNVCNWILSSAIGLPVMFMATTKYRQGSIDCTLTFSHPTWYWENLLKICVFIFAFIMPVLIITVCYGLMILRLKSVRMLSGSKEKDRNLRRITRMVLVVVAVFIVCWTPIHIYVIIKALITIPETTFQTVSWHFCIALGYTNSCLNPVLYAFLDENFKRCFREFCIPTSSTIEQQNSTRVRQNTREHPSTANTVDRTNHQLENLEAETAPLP

[3] = target: T2, mu opioid receptor (Rattus norvegicus, UniProt P33535); assay: [3H]naloxone receptor binding to rat brain homogenates
T2 construct: Adult Sprague-Dawly rats (150-200g) were killed by decapitation; The brain was rapidly removed and homogenized; from tissue; host or cells: rat brain membranes (Sprague-Dawley)
Procedure: as §1, §2

[4] = tested on: mu-type opiate receptors; assay: Guinea pig ileum (GPI) test, electrically stimulated contractions, antagonism of morphiceptin
Procedure: The compounds of the present invention were tested for their ability to inhibit electrically stimulated muscle contractions in the guinea pig ileum (GPI) assay and in the mouse vas deferens (MVD) assay.
The tests in the guinea pig ileum were conducted as follows: strips of longitudinal muscle with adhering myenteric plexus were prepared from nonterminal ilea of guinea pigs and attached to a force transducer in a 60 ml isolated organ bath. Contractions were elicited by electrical stimulation with a Grass S44D stimulator.

| SMILES | IC50 [1] | [3H]DADLE nH [2] | [3H]Naloxone nH [3] | other results |
| --- | --- | --- | --- | --- |
| C[C@@H](O)[C@H](NC(=O)[C@H]1NC(=O)[C@H]([C@@H](C)O)NC(=O)[C@H](CCCCN)NC(=O)[C@@H](Cc2c[nH]c3ccccc23)NC(=O)[C@H](Cc2ccccc2)NC(=O)[C@@H](NC(=O)[C@H](N)Cc2ccccc2)CSSC1(C)C)C(=O)O [drawing 33] | 170 ± 99 nM | – | – | – |
| C[C@@H](O)[C@H](NC(=O)[C@@H]1CSSC(C)(C)[C@H](NC(=O)[C@H](N)Cc2ccccc2)C(=O)N[C@@H](Cc2ccccc2)C(=O)N[C@H](Cc2c[nH]c3ccccc23)C(=O)N[C@@H](CCCCN)C(=O)N[C@@H]([C@@H](C)O)C(=O)N1)C(=O)O [drawing 32] | – | 1.02 | 1.31 | – |
| C[C@@H](O)[C@H](NC(=O)[C@H]1NC(=O)[C@H]([C@@H](C)O)NC(=O)[C@H](CCCCN)NC(=O)[C@@H](Cc2c[nH]c3ccccc23)NC(=O)[C@H](Cc2ccccc2)NC(=O)[C@@H](NC(=O)[C@H](N)Cc2ccccc2)CSSC1(C)C)C(=O)O [drawing 27] | – | 0.83 | 1.13 | – |
| C[C@@H](O)[C@H](NC(=O)[C@@H]1CSSC[C@H](NC(=O)[C@H](N)Cc2ccccc2)C(=O)N[C@@H](Cc2ccccc2)C(=O)N[C@H](Cc2c[nH]c3ccccc23)C(=O)N[C@@H](CCCCN)C(=O)N[C@@H]([C@@H](C)O)C(=O)N1)C(=O)O [drawing 37] | 980 ± 680 nM | – | – | – |
| CC(=O)N[C@@H](Cc1ccccc1)C(=O)N[C@H](Cc1c[nH]c2ccccc12)C(=O)N[C@@H](CCCCN)C(=O)N[C@H](C(=O)O)[C@@H](C)O [AcPhe --D-TrpLysThr, reference compound] (Ac-F[dW]KT-OH) | 7100 ± 870 nM | 0.80 | 1.00 | – |
| C[C@@H](O)[C@H](NC(=O)[C@@H]1CSSC(C)(C)[C@H](NC(=O)[C@H](N)Cc2ccccc2)C(=O)N[C@@H](Cc2ccc(O)cc2)C(=O)N[C@H](Cc2c[nH]c3ccccc23)C(=O)N[C@@H](CCCCN)C(=O)N[C@@H]([C@@H](C)O)C(=O)N1)C(=O)O [drawing 29] | – | 0.58 | 1.03 | – |
| C[C@@H](O)[C@H](NC(=O)[C@H]1NC(=O)[C@H]([C@@H](C)O)NC(=O)[C@H](CCCCN)NC(=O)[C@@H](Cc2c[nH]c3ccccc23)NC(=O)[C@H](Cc2ccc(O)cc2)NC(=O)[C@@H](NC(=O)[C@H](N)Cc2ccccc2)CSSC1(C)C)C(N)=O [drawing 35] | 690 ± 220 nM | – | – | – |
| C[C@@H](O)[C@H](NC(=O)[C@H]1NC(=O)[C@H]([C@@H](C)O)NC(=O)[C@H](CCCCN)NC(=O)[C@@H](Cc2c[nH]c3ccccc23)NC(=O)[C@H](Cc2ccccc2)NC(=O)[C@@H](NC(=O)[C@H](N)Cc2ccccc2)CSSC1(C)C)C(N)=O [drawing 25] | – | 0.33 | 1.04 | – |
| C[C@@H](O)[C@H](NC(=O)[C@@H]1CSSC(C)(C)[C@H](NC(=O)[C@H](N)c2ccccc2)C(=O)N[C@@H](Cc2ccccc2)C(=O)N[C@H](Cc2c[nH]c3ccccc23)C(=O)N[C@@H](CCCCN)C(=O)N[C@@H]([C@@H](C)O)C(=O)N1)C(=O)O [drawing 28] (H-[dPhg][Pen]F[dW]KTCT-OH; disulfide 2-7) | – | 0.99 | – | – |
| C[C@@H](O)[C@H](NC(=O)[C@H]1NC(=O)[C@H]([C@@H](C)O)NC(=O)[C@H](CCCCN)NC(=O)[C@@H](Cc2c[nH]c3ccccc23)NC(=O)[C@H](Cc2ccc(O)cc2)NC(=O)[C@@H](NC(=O)[C@H](N)Cc2ccccc2)CSSC1(C)C)C(=O)O [drawing 39] | 1600 ± 460 nM | – | – | – |
| C[C@@H](O)[C@H](NC(=O)[C@@H]1CSSC(C)(C)[C@H](NC(=O)[C@H](N)Cc2ccccc2)C(=O)N[C@@H](Cc2ccc(O)cc2)C(=O)N[C@H](Cc2c[nH]c3ccccc23)C(=O)N[C@@H](CCCCN)C(=O)N[C@@H]([C@@H](C)O)C(=O)N1)C(=O)O [drawing 40] | 4000 ± 780 nM | – | – | – |
| C[C@@H](O)[C@H](NC(=O)[C@@H]1CSSC[C@H](NC(=O)[C@H](N)Cc2ccccc2)C(=O)N[C@@H](Cc2ccccc2)C(=O)N[C@H](Cc2c[nH]c3ccccc23)C(=O)N[C@@H](CCCCN)C(=O)N[C@@H]([C@@H](C)O)C(=O)N1)C(=O)O [drawing 31] | – | 0.83 | 0.81 | – |
| C[C@@H](O)[C@H](NC(=O)[C@H]1NC(=O)[C@H]([C@@H](C)O)NC(=O)[C@H](CCCCN)NC(=O)[C@@H](Cc2c[nH]c3ccccc23)NC(=O)[C@H](Cc2ccccc2)NC(=O)[C@@H](NC(=O)[C@H](N)Cc2ccccc2)C(C)(C)SSC1(C)C)C(=O)O [drawing 36] | 800 ± 300 nM | – | – | – |
| C[C@@H](O)[C@H](NC(=O)[C@H]1NC(=O)[C@H]([C@@H](C)O)NC(=O)[C@H](CCCCN)NC(=O)[C@@H](Cc2c[nH]c3ccccc23)NC(=O)[C@H](Cc2ccc(O)cc2)NC(=O)[C@@H](NC(=O)[C@H](N)Cc2ccccc2)CSSC1(C)C)C(=O)O [drawing 26] | – | 0.72 | 1.08 | – |
| C[C@@H](O)[C@H](NC(=O)[C@H]1NC(=O)[C@H]([C@@H](C)O)NC(=O)[C@H](CCCCN)NC(=O)[C@@H](Cc2c[nH]c3ccccc23)NC(=O)[C@H](Cc2ccc(O)cc2)NC(=O)[C@@H](NC(=O)[C@H](N)Cc2ccccc2)CSSC1(C)C)C(N)=O [drawing 41] | – | – | – | Antagonism of the mu agonist morphiceptin ([4]; guinea pig ileum test): antagonized the mu agonist, morphiceptin; Percent inhibition of contractions ([4]; morphiceptin 300 nM plus 300 nM analog): 7 ± 2%; Percent inhibition of contractions ([4]; morphiceptin 1000 nM plus 300 nM analog): 18 ± 3%; Percent inhibition of contractions ([4]; morphiceptin 3000 nM plus 300 nM analog): 43 ± 6%; Percent inhibition of contractions ([4]; morphiceptin 10000 nM plus 300 nM analog): 62 ± 2% |
| C[C@@H](O)[C@H](NC(=O)[C@H]1NC(=O)[C@H]([C@@H](C)O)NC(=O)[C@H](CCCCN)NC(=O)[C@@H](Cc2c[nH]c3ccccc23)NC(=O)[C@H](Cc2ccccc2)NC(=O)[C@@H](NC(=O)[C@H](N)Cc2ccccc2)CSSC1(C)C)C(N)=O [drawing 38] | 1500 ± 470 nM | – | – | – |
| C[C@@H](O)[C@H](NC(=O)[C@H]1NC(=O)[C@H]([C@@H](C)O)NC(=O)[C@H](CCCCN)NC(=O)[C@@H](Cc2c[nH]c3ccccc23)NC(=O)[C@H](Cc2ccccc2)NC(=O)[C@@H](NC(=O)[C@H](N)Cc2ccccc2)C(C)(C)SSC1(C)C)C(=O)O [drawing 30] | – | 0.90 | 1.06 | – |
| C[C@@H](O)[C@H](NC(=O)[C@@H]1CSSC(C)(C)[C@H](NC(=O)[C@H](N)Cc2ccccc2)C(=O)N[C@@H](Cc2ccccc2)C(=O)N[C@H](Cc2c[nH]c3ccccc23)C(=O)N[C@@H](CCCCN)C(=O)N[C@@H]([C@@H](C)O)C(=O)N1)C(=O)O [drawing 34] | 400 ± 200 nM | – | – | – |
| C[C@@H](O)[C@@H]1NC(=O)[C@H](Cc2ccc(O)cc2)NC(=O)[C@H]([C@@H](C)O)NC(=O)[C@H](CCCCN)NC(=O)[C@H](Cc2c[nH]c3ccccc23)NC(=O)[C@H](Cc2ccccc2)NC(=O)[C@H](Cc2ccccc2)NC(=O)[C@H](CC(N)=O)NC(=O)[C@H](CCCCN)NC(=O)CCCCC[C@@H](C(=O)O)NC(=O)[C@H](CO)NC1=O [CGP 23,996, des-Ala^1,Gly^2-desamino-Cys3-[Tyr^11]-dicarba^3,14-somatostatin, reference compound] (KNFFWKTYTS[Asu]-OH; lactam N-11) | 8.3 ± 2 nM | – | – | – |

Reference: patent US4684620A, “Cyclic polypeptides having mu-receptor specificity” (Gibson-Stephens Neuropharmaceuticals, Inc., priority 1984, dated 1987)
